PubChem BioAssay AID602196, INSERM | 2012
This is a random part of about 23,000 deposited reagents. 455 of them (2%) were called active. 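Active includes both protection and sensitisation; some change values fall well beyond the stated -50 to +50 range.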 The numbers tell different reagents against one gene apart. Not all columns of the deposit are shown. The record does not give: the amount of reagent.

Assay: 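Knock-downs that protect lung cancer cells from cisplatin or sensitise them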
Cell system: human A549 lung cancer cells
Reagents: siRNA pair against human genes
Duration: 48 h transfection before cisplatin; time from cisplatin to read-out not stated
Conditions: cisplatin at a dose killing half of control-siRNA cells; exact dose and duration not given
Read-out: 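Shift in cisplatin death relative to control siRNA, from -50 (all cells die) to +50 (no cells die); siRNAs harmful on their own scored 0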
Direction: two-siRNA summed score (-2 to +2): higher = both siRNAs protect from cisplatin killing; -2 means both sensitise; mean protection from cisplatin (shift in death): higher = protection from cisplatin killing
Rule for the call: 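Each siRNA scores 0 if harmful alone by LDH or WST-1, otherwise +1 if it reduces and -1 if it increases cisplatin killing; a gene is active when both siRNAs agree (sum +2 or -2)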
Calls: active = both siRNAs shift cisplatin killing the same way; inactive = no consistent shift, or siRNA harmful alone

SPEG
- two-siRNA summed score (-2 to +2): 1
- mean protection from cisplatin (shift in death) (%): 13.9
- call: inactive

COMMD6
- two-siRNA summed score (-2 to +2): 0
- mean protection from cisplatin (shift in death) (%): 9.4
- call: inactive

GNRHR2
- two-siRNA summed score (-2 to +2): 0
- mean protection from cisplatin (shift in death) (%): -4.2
- call: inactive

LOC442350
- two-siRNA summed score (-2 to +2): 0
- mean protection from cisplatin (shift in death) (%): 6.3
- call: inactive

AKAP1
- two-siRNA summed score (-2 to +2): 0
- mean protection from cisplatin (shift in death) (%): -6.1
- call: inactive

PALB2
- two-siRNA summed score (-2 to +2): 1
- mean protection from cisplatin (shift in death) (%): 11.1
- call: inactive

PROM2
- two-siRNA summed score (-2 to +2): 0
- mean protection from cisplatin (shift in death) (%): 5.4
- call: inactive

GDF6
- two-siRNA summed score (-2 to +2): -1
- mean protection from cisplatin (shift in death) (%): -6.6
- call: inactive

CRISP1
- two-siRNA summed score (-2 to +2): 0
- mean protection from cisplatin (shift in death) (%): 6.8
- call: inactive

GREB1
- two-siRNA summed score (-2 to +2): 0
- mean protection from cisplatin (shift in death) (%): 8.8
- call: inactive

The list goes on; the last 2 above are carried over.
CRISP1
- two-siRNA summed score (-2 to +2): 0
- mean protection from cisplatin (shift in death) (%): 6.8
- call: inactive

GREB1
- two-siRNA summed score (-2 to +2): 0
- mean protection from cisplatin (shift in death) (%): 8.8
- call: inactive

ZNF213
- two-siRNA summed score (-2 to +2): 1
- mean protection from cisplatin (shift in death) (%): 11.6
- call: inactive

PTMA
- two-siRNA summed score (-2 to +2): 0
- mean protection from cisplatin (shift in death) (%): 2.6
- call: inactive

ENTPD5
- two-siRNA summed score (-2 to +2): 0
- mean protection from cisplatin (shift in death) (%): 4
- call: inactive

MOCS1
- two-siRNA summed score (-2 to +2): 0
- mean protection from cisplatin (shift in death) (%): 7.6
- call: inactive

LOC440372
- two-siRNA summed score (-2 to +2): -1
- mean protection from cisplatin (shift in death) (%): -8
- call: inactive

DKFZp434P0216
- two-siRNA summed score (-2 to +2): 0
- mean protection from cisplatin (shift in death) (%): 22.7
- call: inactive

RBM42
- two-siRNA summed score (-2 to +2): -1
- mean protection from cisplatin (shift in death) (%): -0.3
- call: inactive

ADGRA2
- two-siRNA summed score (-2 to +2): 0
- mean protection from cisplatin (shift in death) (%): 6.2
- call: inactive

PUF60
- two-siRNA summed score (-2 to +2): 0
- mean protection from cisplatin (shift in death) (%): 5.5
- call: inactive

NBEAL1 #1
- two-siRNA summed score (-2 to +2): 0
- mean protection from cisplatin (shift in death) (%): -1.4
- call: inactive

NBEAL1 #2
- two-siRNA summed score (-2 to +2): 0
- mean protection from cisplatin (shift in death) (%): 2.2
- call: inactive

HK1
- two-siRNA summed score (-2 to +2): -1
- mean protection from cisplatin (shift in death) (%): -7.1
- call: inactive

DDIT4
- two-siRNA summed score (-2 to +2): 0
- mean protection from cisplatin (shift in death) (%): -6.1
- call: inactive

STX8
- two-siRNA summed score (-2 to +2): 1
- mean protection from cisplatin (shift in death) (%): 19.4
- call: inactive

PXDNL
- two-siRNA summed score (-2 to +2): 0
- mean protection from cisplatin (shift in death) (%): -6.1
- call: inactive

LOC441104
- two-siRNA summed score (-2 to +2): 0
- mean protection from cisplatin (shift in death) (%): 4.5
- call: inactive

BPIFA2
- two-siRNA summed score (-2 to +2): 0
- mean protection from cisplatin (shift in death) (%): 8.1
- call: inactive

FRMPD1
- two-siRNA summed score (-2 to +2): 0
- mean protection from cisplatin (shift in death) (%): 3.2
- call: inactive

GSTM5
- two-siRNA summed score (-2 to +2): 0
- mean protection from cisplatin (shift in death) (%): 5.9
- call: inactive

TMEM79
- two-siRNA summed score (-2 to +2): 1
- mean protection from cisplatin (shift in death) (%): 8
- call: inactive

C10orf71
- two-siRNA summed score (-2 to +2): 0
- mean protection from cisplatin (shift in death) (%): 12.5
- call: inactive
